# Laboratory results from the supplement of paper PMC12819154, “High-throughput peptide-centric local stability assay extends protein–ligand identification to membrane proteins, tissues and bacteria” (Nature Structural & Molecular Biology, 2025).
# Chains of the proteins cited; added tags and fusions are not shown. Lines headed by an entry give the natural chain unless they say otherwise; changes in a name come on top.
# UniProt O14562: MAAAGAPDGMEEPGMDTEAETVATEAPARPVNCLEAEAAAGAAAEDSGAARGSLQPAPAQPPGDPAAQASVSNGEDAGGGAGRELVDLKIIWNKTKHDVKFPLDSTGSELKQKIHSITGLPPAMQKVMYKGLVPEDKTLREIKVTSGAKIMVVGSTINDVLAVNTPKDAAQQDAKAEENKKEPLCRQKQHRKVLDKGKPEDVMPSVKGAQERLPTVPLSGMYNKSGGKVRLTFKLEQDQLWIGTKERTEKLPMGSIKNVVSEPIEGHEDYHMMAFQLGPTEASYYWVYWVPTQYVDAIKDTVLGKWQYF
# UniProt O00399, whole entry: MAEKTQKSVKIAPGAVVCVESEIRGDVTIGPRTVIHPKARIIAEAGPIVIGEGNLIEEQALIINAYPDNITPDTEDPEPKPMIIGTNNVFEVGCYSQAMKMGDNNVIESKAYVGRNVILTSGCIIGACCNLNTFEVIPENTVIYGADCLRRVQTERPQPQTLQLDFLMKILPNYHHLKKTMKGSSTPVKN
# UniProt O15371, whole entry: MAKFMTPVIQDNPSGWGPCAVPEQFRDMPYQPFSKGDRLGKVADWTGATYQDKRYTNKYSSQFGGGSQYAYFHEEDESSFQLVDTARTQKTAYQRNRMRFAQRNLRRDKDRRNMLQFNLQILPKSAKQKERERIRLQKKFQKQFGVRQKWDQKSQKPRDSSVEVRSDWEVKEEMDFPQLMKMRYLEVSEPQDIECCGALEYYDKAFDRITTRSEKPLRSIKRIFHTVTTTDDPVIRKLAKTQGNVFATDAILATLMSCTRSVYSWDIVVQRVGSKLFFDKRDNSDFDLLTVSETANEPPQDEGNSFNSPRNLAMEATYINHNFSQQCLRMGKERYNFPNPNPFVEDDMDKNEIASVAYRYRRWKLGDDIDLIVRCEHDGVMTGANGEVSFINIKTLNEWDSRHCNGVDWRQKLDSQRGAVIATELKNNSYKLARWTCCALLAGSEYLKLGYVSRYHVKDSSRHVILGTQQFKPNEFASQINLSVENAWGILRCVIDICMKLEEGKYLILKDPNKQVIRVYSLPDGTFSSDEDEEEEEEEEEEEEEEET
# UniProt O15318: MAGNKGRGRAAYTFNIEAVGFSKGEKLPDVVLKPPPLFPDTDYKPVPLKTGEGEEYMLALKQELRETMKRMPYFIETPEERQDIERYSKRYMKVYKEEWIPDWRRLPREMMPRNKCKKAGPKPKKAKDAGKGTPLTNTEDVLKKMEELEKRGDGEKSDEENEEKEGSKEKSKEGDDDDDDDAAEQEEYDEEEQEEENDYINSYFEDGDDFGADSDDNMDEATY
# UniProt O14924: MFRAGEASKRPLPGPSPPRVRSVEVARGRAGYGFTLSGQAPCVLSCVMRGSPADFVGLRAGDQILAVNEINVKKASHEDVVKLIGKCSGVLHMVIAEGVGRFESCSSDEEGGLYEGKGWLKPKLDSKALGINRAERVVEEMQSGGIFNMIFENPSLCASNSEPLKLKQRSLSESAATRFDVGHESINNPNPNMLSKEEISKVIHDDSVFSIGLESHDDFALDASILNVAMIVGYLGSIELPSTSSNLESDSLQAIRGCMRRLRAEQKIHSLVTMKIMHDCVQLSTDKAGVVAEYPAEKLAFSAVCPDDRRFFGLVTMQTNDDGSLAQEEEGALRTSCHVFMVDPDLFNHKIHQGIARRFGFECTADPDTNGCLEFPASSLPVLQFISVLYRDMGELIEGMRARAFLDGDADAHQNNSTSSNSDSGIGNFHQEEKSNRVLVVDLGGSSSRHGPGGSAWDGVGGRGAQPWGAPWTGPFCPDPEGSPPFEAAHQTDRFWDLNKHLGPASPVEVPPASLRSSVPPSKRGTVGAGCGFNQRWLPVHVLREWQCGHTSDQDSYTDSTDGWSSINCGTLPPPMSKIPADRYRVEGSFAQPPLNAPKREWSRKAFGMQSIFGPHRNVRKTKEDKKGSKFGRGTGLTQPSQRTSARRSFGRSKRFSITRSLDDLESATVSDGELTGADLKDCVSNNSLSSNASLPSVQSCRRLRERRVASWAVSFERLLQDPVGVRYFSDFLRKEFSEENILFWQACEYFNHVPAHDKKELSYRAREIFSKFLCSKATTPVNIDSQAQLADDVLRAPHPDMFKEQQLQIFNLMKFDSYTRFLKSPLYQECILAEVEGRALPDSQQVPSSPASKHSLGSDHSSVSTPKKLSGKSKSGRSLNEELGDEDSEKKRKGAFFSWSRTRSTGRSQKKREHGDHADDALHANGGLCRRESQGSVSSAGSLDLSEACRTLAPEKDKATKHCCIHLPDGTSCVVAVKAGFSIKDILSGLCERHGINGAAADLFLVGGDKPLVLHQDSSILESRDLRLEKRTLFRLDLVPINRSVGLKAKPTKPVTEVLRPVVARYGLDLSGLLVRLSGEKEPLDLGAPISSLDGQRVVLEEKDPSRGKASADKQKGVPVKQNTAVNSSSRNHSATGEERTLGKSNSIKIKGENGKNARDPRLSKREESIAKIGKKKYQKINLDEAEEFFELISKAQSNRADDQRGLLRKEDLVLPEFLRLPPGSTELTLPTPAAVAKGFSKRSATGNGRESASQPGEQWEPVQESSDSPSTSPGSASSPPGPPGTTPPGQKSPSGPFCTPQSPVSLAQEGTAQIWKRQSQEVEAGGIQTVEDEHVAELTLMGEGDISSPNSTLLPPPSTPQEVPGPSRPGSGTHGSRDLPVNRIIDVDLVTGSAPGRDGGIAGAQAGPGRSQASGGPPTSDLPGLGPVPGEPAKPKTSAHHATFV
# UniProt O00220, whole entry: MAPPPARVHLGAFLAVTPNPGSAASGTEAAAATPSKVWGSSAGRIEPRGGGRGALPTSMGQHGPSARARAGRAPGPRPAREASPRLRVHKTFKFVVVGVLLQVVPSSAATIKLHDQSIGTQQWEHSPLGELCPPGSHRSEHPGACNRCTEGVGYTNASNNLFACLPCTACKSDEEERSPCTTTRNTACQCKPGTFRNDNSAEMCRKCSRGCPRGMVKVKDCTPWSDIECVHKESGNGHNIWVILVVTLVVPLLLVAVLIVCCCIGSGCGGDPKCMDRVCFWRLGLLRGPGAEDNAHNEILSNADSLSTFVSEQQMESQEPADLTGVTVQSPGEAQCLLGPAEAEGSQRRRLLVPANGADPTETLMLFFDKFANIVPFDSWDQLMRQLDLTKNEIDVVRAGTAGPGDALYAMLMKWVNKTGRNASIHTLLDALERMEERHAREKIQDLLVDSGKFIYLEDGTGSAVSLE
# UniProt C9JLW8: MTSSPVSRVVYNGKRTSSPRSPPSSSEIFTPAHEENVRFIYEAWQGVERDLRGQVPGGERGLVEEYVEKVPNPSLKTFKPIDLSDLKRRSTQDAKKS
# UniProt O15213: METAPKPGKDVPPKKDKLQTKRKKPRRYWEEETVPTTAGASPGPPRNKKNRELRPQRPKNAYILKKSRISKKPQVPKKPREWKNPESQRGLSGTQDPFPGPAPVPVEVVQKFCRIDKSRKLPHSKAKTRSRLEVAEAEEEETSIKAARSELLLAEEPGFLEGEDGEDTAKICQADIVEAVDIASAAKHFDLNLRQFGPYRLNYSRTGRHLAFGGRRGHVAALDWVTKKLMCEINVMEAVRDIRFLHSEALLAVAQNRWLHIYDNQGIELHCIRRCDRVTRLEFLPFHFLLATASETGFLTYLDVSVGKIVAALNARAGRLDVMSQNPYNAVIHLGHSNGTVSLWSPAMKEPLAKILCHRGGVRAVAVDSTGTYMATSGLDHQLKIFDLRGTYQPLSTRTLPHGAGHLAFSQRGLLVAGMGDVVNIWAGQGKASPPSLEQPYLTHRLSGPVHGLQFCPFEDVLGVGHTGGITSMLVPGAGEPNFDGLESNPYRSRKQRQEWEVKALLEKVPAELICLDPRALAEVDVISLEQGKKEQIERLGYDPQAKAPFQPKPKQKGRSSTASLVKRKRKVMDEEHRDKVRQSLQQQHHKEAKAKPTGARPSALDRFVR
# UniProt O00625: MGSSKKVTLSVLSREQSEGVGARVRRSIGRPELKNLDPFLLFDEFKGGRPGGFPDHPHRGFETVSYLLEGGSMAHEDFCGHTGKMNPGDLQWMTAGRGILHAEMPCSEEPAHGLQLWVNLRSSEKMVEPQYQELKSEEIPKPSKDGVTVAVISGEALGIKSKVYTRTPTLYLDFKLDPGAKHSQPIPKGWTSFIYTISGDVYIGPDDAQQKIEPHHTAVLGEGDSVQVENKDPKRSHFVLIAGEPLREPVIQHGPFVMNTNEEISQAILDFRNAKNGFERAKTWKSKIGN
# UniProt O15525: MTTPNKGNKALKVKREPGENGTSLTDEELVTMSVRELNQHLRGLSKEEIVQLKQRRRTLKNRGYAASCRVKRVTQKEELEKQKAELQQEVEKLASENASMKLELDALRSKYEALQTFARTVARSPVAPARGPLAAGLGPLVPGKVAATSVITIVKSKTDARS
# UniProt O14986: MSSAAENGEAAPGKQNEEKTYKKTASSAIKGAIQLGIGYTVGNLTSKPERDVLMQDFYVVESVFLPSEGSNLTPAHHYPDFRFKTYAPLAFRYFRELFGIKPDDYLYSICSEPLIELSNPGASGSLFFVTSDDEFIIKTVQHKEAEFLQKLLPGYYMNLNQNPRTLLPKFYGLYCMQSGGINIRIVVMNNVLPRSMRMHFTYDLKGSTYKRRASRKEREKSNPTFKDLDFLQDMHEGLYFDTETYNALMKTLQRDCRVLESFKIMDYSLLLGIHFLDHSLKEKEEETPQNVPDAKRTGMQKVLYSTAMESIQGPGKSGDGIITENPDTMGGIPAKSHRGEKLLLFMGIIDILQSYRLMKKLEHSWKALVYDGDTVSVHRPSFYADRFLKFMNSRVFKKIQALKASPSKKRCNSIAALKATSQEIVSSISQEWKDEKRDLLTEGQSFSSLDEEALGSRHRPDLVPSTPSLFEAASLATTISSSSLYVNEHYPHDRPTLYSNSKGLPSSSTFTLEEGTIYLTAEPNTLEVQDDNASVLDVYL
# UniProt O14965: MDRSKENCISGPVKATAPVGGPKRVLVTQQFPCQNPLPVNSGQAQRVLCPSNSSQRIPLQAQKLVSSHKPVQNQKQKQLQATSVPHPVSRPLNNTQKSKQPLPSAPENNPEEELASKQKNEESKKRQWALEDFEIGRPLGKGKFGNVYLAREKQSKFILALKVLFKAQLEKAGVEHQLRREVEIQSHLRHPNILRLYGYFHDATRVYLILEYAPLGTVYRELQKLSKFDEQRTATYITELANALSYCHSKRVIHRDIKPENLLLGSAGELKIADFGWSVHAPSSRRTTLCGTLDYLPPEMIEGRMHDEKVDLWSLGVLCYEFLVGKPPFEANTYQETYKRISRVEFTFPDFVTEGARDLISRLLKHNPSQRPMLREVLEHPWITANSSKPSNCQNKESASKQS
# UniProt O00461: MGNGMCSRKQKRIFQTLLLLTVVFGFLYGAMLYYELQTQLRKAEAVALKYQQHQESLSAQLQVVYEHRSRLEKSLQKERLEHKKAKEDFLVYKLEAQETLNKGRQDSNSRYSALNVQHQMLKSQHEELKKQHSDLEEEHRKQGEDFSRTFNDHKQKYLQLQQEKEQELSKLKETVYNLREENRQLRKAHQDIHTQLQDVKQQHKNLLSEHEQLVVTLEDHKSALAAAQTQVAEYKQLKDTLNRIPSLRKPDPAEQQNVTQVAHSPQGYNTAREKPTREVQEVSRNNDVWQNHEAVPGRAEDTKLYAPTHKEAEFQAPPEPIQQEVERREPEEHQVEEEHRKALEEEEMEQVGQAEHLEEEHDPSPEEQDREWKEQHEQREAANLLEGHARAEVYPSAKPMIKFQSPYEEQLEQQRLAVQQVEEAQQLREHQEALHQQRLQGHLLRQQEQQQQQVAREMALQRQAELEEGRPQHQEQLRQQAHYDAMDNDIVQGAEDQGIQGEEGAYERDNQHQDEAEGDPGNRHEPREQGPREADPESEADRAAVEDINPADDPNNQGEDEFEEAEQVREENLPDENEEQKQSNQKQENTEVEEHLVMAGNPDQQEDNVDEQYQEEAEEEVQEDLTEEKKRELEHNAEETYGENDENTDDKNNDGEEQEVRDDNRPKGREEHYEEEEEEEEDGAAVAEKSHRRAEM
# UniProt O14579: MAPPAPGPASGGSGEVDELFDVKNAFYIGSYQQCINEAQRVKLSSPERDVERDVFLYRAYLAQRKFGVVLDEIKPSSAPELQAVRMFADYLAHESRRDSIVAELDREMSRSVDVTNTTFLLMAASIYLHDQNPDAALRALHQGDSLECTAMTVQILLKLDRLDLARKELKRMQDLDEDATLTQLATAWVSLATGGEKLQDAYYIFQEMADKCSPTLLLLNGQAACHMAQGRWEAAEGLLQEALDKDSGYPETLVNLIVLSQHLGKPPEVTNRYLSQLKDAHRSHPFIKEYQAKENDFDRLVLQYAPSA
# UniProt O00560: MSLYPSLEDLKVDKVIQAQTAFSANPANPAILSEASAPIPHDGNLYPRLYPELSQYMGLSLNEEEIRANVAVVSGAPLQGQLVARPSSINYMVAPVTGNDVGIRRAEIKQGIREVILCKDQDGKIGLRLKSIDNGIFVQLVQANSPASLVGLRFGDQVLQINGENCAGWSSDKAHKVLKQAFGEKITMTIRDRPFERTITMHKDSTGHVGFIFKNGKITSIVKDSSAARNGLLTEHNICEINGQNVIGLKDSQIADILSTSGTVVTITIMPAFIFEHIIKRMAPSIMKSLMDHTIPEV
# Some of the results follow. Most values lie at the level of the controls, where differences are scatter.
# Compound: Cc1nc(Nc2ncc(C(=O)Nc3c(C)cccc3Cl)s2)cc(N2CCN(CCO)CC2)n1 [dasatinib]
# Test: log2 fold change of tryptic peptide abundance, ligand vs vehicle (limited proteolysis) (log2 ratio); higher = more trypsin-susceptible (destabilized)
# Conditions: ligand concentration: 5 uM; sample: K562 cleared lysate
row,Target,log2 fold change
1,"STX7 (peptide sequence: ETDKYIKEFGSLPTTPSEQR, peptide start residue: 65) (UniProt O15400)",-0.149
2,"UBFD1 (peptide sequence: LPTVPLSGMYNK, peptide start residue: 213) (UniProt O14562)",0.125
3,"UniProt O15524 (peptide sequence: IPLNPVLR, peptide start residue: 194)",0.26
4,"UniProt A9YTQ3 (peptide sequence: ASGVTGR, peptide start residue: 388)",0.933
5,"DCTN6 (peptide sequence: ILPNYHHLKK, peptide start residue: 170) (UniProt O00399)",-0.0545
6,"EIF3D (peptide sequence: LGDDIDLIVR, peptide start residue: 365) (UniProt O15371)",0.282
7,"RIOK3 (peptide sequence: EAYYQTLHLMR, peptide start residue: 384) (UniProt O14730)",0.0686
8,"MAST4 (peptide sequence: GLQNSPAVSLPDPEFKR, peptide start residue: 1882) (UniProt O15021)",-0.623
9,"KMT2D (peptide sequence: KGEAEGPGGKEK, peptide start residue: 4832) (UniProt O14686)",-1.12
10,"IFRD1 (peptide sequence: MYIDCWVKK, peptide start residue: 363) (UniProt O00458)",0.302
11,"POLR3G (peptide sequence: MEELEKR, peptide start residue: 145) (UniProt O15318)",-0.356
12,"CIT (peptide sequence: KDLADKETLENMMQR, peptide start residue: 734) (UniProt O14578)",-0.741
13,"UniProt O14924 (peptide sequence: LDLVPINR, peptide start residue: 1037)",-0.0145
14,"PITPNM1 (peptide sequence: EGPGTPPTTLAR, peptide start residue: 1219) (UniProt O00562)",-0.313
15,"EEF2K (peptide sequence: LTPQAFSHFTFER, peptide start residue: 253) (UniProt O00418)",0.163
16,"UniProt O15037 (peptide sequence: EPPGAHGSCHR, peptide start residue: 324)",0.709
17,"CLIC1 (peptide sequence: LFMVLWLK, peptide start residue: 30) (UniProt O00299)",-0.966
18,"TNFRSF10A (peptide sequence: IQDLLVDSGK, peptide start residue: 444) (UniProt O00220)",0.171
19,"OGG1 (peptide sequence: ESSYEEAHK, peptide start residue: 230) (UniProt O15527)",-0.0776

# Look-ups from the list.
# log2 fold change with UniProt O15037 (peptide sequence: EPPGAHGSCHR, peptide start residue: 324) is entered as 0.709
# log2 fold change with IFRD1 (peptide sequence: MYIDCWVKK, peptide start residue: 363) (UniProt O00458) is entered as 0.302
# log2 fold change with UBFD1 (peptide sequence: LPTVPLSGMYNK, peptide start residue: 213) (UniProt O14562) is entered as 0.125

# Continuation:

row,Target,log2 fold change
1,"FCHO1 (peptide sequence: DAAGKPQRPR, peptide start residue: 404) (UniProt O14526)",0.16
2,"MCRIP1 (peptide sequence: TFKPIDLSDLKR, peptide start residue: 77) (UniProt C9JLW8)",-0.151
3,"MEN1 (peptide sequence: GQTVNAGVAER, peptide start residue: 213) (UniProt O00255)",0.162
4,"ESPN (peptide sequence: SLKPTPQSK, peptide start residue: 664) (UniProt B1AK53)",-0.585
5,"BCL9 (peptide sequence: FAMPSSTPLYHDAIK, peptide start residue: 1016) (UniProt O00512)",0.31
6,"UniProt C9JQI7 (peptide sequence: EKEDAICK, peptide start residue: 608)",-0.0727
7,"WDR46 (peptide sequence: QSLQQQHHK, peptide start residue: 583) (UniProt O15213)",-0.588
8,"PIR (peptide sequence: TPTLYLDFK, peptide start residue: 167) (UniProt O00625)",-0.413
9,"AP3D1 (peptide sequence: LFGALTPLEPR, peptide start residue: 244) (UniProt O14617)",-0.4
10,"MAFG (peptide sequence: GPLAAGLGPLVPGK, peptide start residue: 131) (UniProt O15525)",-0.141
11,"ANKRD28 (peptide sequence: AIHWAAYMGHIEVVK, peptide start residue: 176) (UniProt O15084)",-0.49
12,"RFXAP (peptide sequence: SPEVVQFLQK, peptide start residue: 241) (UniProt O00287)",0.0896
13,"PIP5K1B (peptide sequence: ALVYDGDTVSVHRPSFYADR, peptide start residue: 367) (UniProt O14986)",-0.317
14,"UniProt O14965 (peptide sequence: QWALEDFEIGRPLGK, peptide start residue: 127)",-0.311
15,"GOLIM4 (peptide sequence: EHQEALHQQR, peptide start residue: 429) (UniProt O00461)",0.57
16,"POLR2D (peptide sequence: LHKFELACLANLCPETAEESK, peptide start residue: 92) (UniProt O15514)",0.218
17,"COPE (peptide sequence: DSIVAELDR, peptide start residue: 98) (UniProt O14579)",0.296
18,"SDCBP (peptide sequence: FGDQVLQINGENCAGWSSDKAHK, peptide start residue: 154) (UniProt O00560)",-0.281
